Data from the primary screen of doi:10.1371/journal.pone.0140310, rounded.

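The test systems are human melanoma cell lines, treated with two drugs together for 72 h and then stained and imaged. Each value is the count of nuclei relative to DMSO-treated wells, in %, so that 100 equals the control. Concentrations were fixed for each drug; these are the lower of two levels, a fifth of the higher. The file gives one value for each pair and line, without errors, so small differences may be noise.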
This is part of the screen, not chosen by result.
A dash means that no value is listed here.

Compounds and concentrations:
A-769662, 2 µM: N#Cc1c(O)c2c(-c3ccc(-c4ccccc4O)cc3)csc2[nH]c1=O
dovitinib, 0.1 µM: CN1CCN(c2ccc3nc(-c4c(N)c5c(F)cccc5[nH]c4=O)[nH]c3c2)CC1
AS-252424, 1 µM: O=C1NC(=O)/C(=C/c2ccc(-c3ccc(F)cc3O)o2)S1
IMD-0354, 0.016 µM: O=C(Nc1cc(C(F)(F)F)cc(C(F)(F)F)c1)c1cc(Cl)ccc1O
perifosine, 0.4 µM: CCCCCCCCCCCCCCCCCCOP(=O)([O-])OC1CC[N+](C)(C)CC1
BI-D1870, 0.2 µM: CC(C)CCN1c2nc(Nc3cc(F)c(O)c(F)c3)ncc2N(C)C(=O)C1C (centres undefined)
tanespimycin, 0.002 µM: C=CCNC1=C2C[C@@H](C)C[C@H](OC)[C@H](O)[C@@H](C)/C=C(\C)[C@H](OC(N)=O)[C@@H](OC)/C=C\C=C(/C)C(=O)NC(=CC1=O)C2=O
GW9662, 2 µM: O=C(Nc1ccccc1)c1cc([N+](=O)[O-])ccc1Cl
lestaurtinib, 0.004 µM: C[C@]12O[C@H](C[C@]1(O)CO)n1c3ccccc3c3c4c(c5c6ccccc6n2c5c31)CNC4=O
tozasertib, 0.006 µM: Cc1cc(Nc2cc(N3CCN(C)CC3)nc(Sc3ccc(NC(=O)C4CC4)cc3)n2)n[nH]1
dorsomorphin, 0.4 µM: c1cc(-c2cnn3cc(-c4ccc(OCCN5CCCCC5)cc4)cnc23)ccn1
GSK0660, 1 µM: COC(=O)c1sccc1S(=O)(=O)Nc1ccc(Nc2ccccc2)cc1OC
vincristine, 0.0001 µM: CC[C@]1(O)C[C@H]2CN(CCc3c([nH]c4ccccc34)[C@@](C(=O)OC)(c3cc4c(cc3OC)N(C=O)[C@H]3[C@@](O)(C(=O)OC)[C@H](OC(C)=O)[C@]5(CC)C=CCN6CC[C@]43[C@@H]65)C2)C1
LFM-A13, 2 µM: C/C(O)=C(\C#N)C(=O)Nc1cc(Br)ccc1Br
BI-78D3, 0.2 µM: O=c1[nH]nc(Sc2ncc([N+](=O)[O-])s2)n1-c1ccc2c(c1)OCCO2
T0901317, 1.4 µM: O=S(=O)(c1ccccc1)N(CC(F)(F)F)c1ccc(C(O)(C(F)(F)F)C(F)(F)F)cc1
Src-I1, 2 µM: COc1cc2ncnc(Nc3ccc(Oc4ccccc4)cc3)c2cc1OC
CP-690550, 1 µM: C[C@@H]1CCN(C(=O)CC#N)C[C@@H]1N(C)c1ncnc2[nH]ccc12
FH535, 1 µM: Cc1cc([N+](=O)[O-])ccc1NS(=O)(=O)c1cc(Cl)ccc1Cl
pazopanib, 0.4 µM: Cc1ccc(Nc2nccc(N(C)c3ccc4c(C)n(C)nc4c3)n2)cc1S(N)(=O)=O

| Combination | A375 | C32 | A2058 | A101D | 501mel |
|---|---|---|---|---|---|
| BI-78D3 + LFM-A13 | - | 99.0 | 95.9 | 97.7 | 105 |
| tozasertib + Src-I1 | - | 88.6 | 99.2 | 89.7 | 70.9 |
| GSK0660 + dovitinib | - | 117 | 105 | 89.5 | 60.9 |
| tanespimycin + T0901317 | - | 77.4 | 101 | 87.2 | - |
| LFM-A13 + lestaurtinib | - | 109 | 100 | 99.1 | 131 |
| Src-I1 + lestaurtinib | - | 88.5 | 107 | 95.4 | 94.1 |
| pazopanib + GW9662 | - | 109 | 106 | 100 | 85.5 |
| BI-D1870 + BI-78D3 | - | 110 | 89.9 | 106 | 88.1 |
| BI-D1870 + CP-690550 | 112 | 94.7 | 98.7 | 97.4 | 102 |
| lestaurtinib + GW9662 | - | 101 | 112 | 95.5 | 90.2 |
| Src-I1 + pazopanib | - | 97.5 | 93.0 | 94.1 | 86.8 |
| perifosine + FH535 | - | 112 | 74.3 | 80.0 | 90.1 |
| dorsomorphin + IMD-0354 | - | 102 | 101 | 78.4 | 68.8 |
| BI-D1870 + vincristine | - | 73.9 | 9.2 | 60.8 | 76.8 |
| vincristine + Src-I1 | - | 63.3 | 6.7 | 50.4 | 68.4 |
| tanespimycin + GW9662 | - | 65.6 | 97.1 | 101 | - |
| tanespimycin + A-769662 | - | 67.4 | 90.8 | 109 | - |
| perifosine + AS-252424 | - | 85.9 | 93.0 | 114 | 97.1 |